Assay results: publication doi:10.1101/2025.05.13.653872
Results are given in words; binding and its absence hold for the method and conditions named. Binding seen in cells or lysates may run through a third protein. Here binding means that the protein was enriched with, or labelled near, the bait; the list need not be complete.

B1: PqsB (PA0997) (protein, UniProt Q9I4X2 1-283)
chain: MLIQAVGVNLPPSYVCLEGPLGGERPRAQGDEMLMQRLLPAVREALDEAAVKPEEIDLIVGLALSPDHLIENRDIMAPKIGHPLQKVLGANRAHVFDLTDSSLARALYVVDTLASDQGYRNVLVVRGESSQGLEVDSESGFALADGALALLCRPTGKAAFRRGALGGDPAQEWLPLSIPLNTDIRQVGDVKGHLNLPAQPGLPEAVRAGFTRLAGDFPQLNWVREEWFGQGRPDGRCLGPFELASQLRAAQRDRLDELLLISFDPFGMVVEGVTLELAGEAHA
B2: PA5027 hypothetical protein (protein, UniProt Q9HUE2 1-271)
chain: MIRHLLVAHDLTPEADVALARAAQLARQHDARVSLLHVYDPGLSASAVKTVSAMLQLKRKEAGLDEDSAIHLFRGQPIDGILQQTRALEPDLLLMGAHHQKTFERFGNTTLDQVVRRSRVPVLLAVREADEPYRQALSALDFSQCACTALRQAYRLLPVEADLHALHVFESPDDGVLGLPRQNAAHLATQAGLIEQLLSDEQERLPGVGPQLSHEVVPGVLPYSLDAALKQRQPELLALGRHSRNALMQALLGNLAQRYLRQPSCDVLVTS
B3: PA3720 hypothetical protein (protein, UniProt Q9HXS1 1-141)
chain: MNAPAKSLLDIDAFPLVQVREMPRELADVERWLEEVEALLAVERDFALVYPPLPQETAEGDQQARKRLVLWLKENRQRFVEHCRGILLSANGQPDNLADLQQLAPVLQAVYGPPVSVAPDLASARGMAKALLSGPATGMNW
B4: PA1546 coproporphyrinogen III oxidase (protein, UniProt P77915 1-460)
chain: MLDTIRWDADLIRRYDLSGPRYTSYPTAVQFHEGIGPFDQLHALRDSRKAGHPLSLYVHIPFCANICYYCACNKVITKDRGRSAPYLARLVREIEIVSRHLSREQVVEQLHFGGGTPTFLSPGQLRELMSQLRTHLNLLDDDSGDYGIEIDPREADWSTMGLLRELGFNRVSLGVQDFDMEVQKAVNRMQTPEETRTIVEAARTLQYRSINLDLIYGLPKQTPDSFARTVDEVIALQPDRLSVFNYAHLPERFMPQRRINADDLPSPGQKLEMLQRTTEQLAAAGYRYIGMDHFALPDDELASAQEDGTLQRNFQGYTTHGHCDLVGLGVSAISQIGDLYSQNSSDINDYQTSLDNGQLAIRRGLHCNSDDRVRRAVIQQLICHFELAFEDIETEFGIDFRSYFAELWPDLERFAADGLIRLDAKGIDITSSGRLLVRSICMLFDRYLPSLNRQRFSRVI
B5: PA5457 methyltransferase (protein, UniProt Q9HTB3 1-287)
chain: MIRALLQRWRSRPAAASEPVSPRMCGLRDAVLDGWFRSETGELLAGFAIGAQDTLLDLGCGEGVATLFAARQGASVIFTDSEEDKVRSLAQQVEAVARRPFTGLVSDSDPLPLRDACADKLVCMEVLEHVANPARVMAELVRLGRPGAQYLLSVPDPVGEHLQQGIAPADYFRAPNHIHIFSRDDFARLVQDAGLVIEHRQASGFFWVMGMIFFWASERAAGRELGGAVRDRIQPPYPALMEDWARLWENLLARPDGLEIKHLLDHFMPKSQVIIARKPLDPGSSRT
B6: PA3374 conserved hypothetical protein (protein, UniProt Q9HYM7 1-387)
chain: MSSERVLSNARVVSAERVFVGSVLLRDGLIAAVDEGRSHLAGAEDLGGDYLLPGLVELHTDNLEKHMTPRPGVDWPSASAVLAHDAQIVSAGITTVFDALSIGDVNPKGKRMQQLPKMLEAIGEAAASGDARADHRLHLRCEVSHPQTLEVFRELVEHPLVQLVSVMDHAPGQRQFARLEKYREYYQGKYHLSDAEMDAFIVEQVANSERYSDAARAAIVDVCQGRGLSVASHDDATLAHVRESAGYGMAIAEFPTTVEAARASHEHGLQVLMGAPNVVRGGSHSGNVAAAQLAGIGVLDILSSDYYPASLLHAALLLAGEHSEYDAIRYDLPRAVAMVSRTPALAAGLTDRGEIRVGLRADLLQARALGNNQPVVRQVWRGGQRVF
B7: PA5475 hypothetical protein (protein, UniProt Q9HT95 1-186)
chain: MSNVQNASRSSAFAAVEGDHWVESLDDGRHVLIRPLREEDRERERQFINRLSPATRHFRFLGEIKEASPALLDQLMDIDYQQSMAFVALVHEDGELREVGISRYAACCEEGQCECAVTIADDYQGLGLDAVLMRHLIDVARRNGFRQMYSVDSAANRAMRDLCCALGFVGQRDPDDSTQVIHRLAL
B8: PA3233 hypothetical protein (protein, UniProt Q9HZ07 1-599)
chain: MPDSFNFASPPFDQLRPHQRETLKQALSVGYYAPGETLLEAGSAVPGLFVLLKGVVEERGDDGRVFAQYAADDLFDVRGLFSGSSKHRYLAIEESIVYELPASCFHQLCGENPGFARFFQADLAAKRQLAQRDGQNLAEFILTRIAREHLLPALEVEASLSLGDAARLQLSHGADALLVRLERDGPELGIVTRTDLMSAHFRDGRSELEAIGPLAHGPLASVELGDFLFDAMILMTRQRIERVAVTEDGQVIGLLHLTQVLSLFSTHSHVLALRIARADDLGDLRRCAETLDTLIATLAGNGIRLRFIMQLVSALNEQLLERLFELLLPPTLRGRCCLLVMGSEGRGEQLLKTDQDNALVLADDLPQEQALAMMQRFSAALLEFGYPPCPGGVMASRPEWCKPLAAWQAELRGTLLEGKPEQLLRLSILADAWPVAGNLQLFEPLRWQLRGFADGGERWLADIAAAALQFDTPLTFLGQLKTQDARLDLKRGGIFPIVHGIRTLALREGLETRGTLARIEALKRHKVLEARLADDLSESFELFLQLRLTRQLAGQRDGRQQGLDVSGMSRHDRDMLRYGLHVVKKFKQSVARQFHLETR
B9: PA4567 50S ribosomal protein L27 (protein, UniProt Q9HVL7 1-85)
chain: MAHKKAGGSTRNGRDSESKRLGVKLFGGQAVKAGNILVRQRGTKFHAGYGVGLGKDHTLFAKVDGVVKFETKGAFGRKYVSIVAA
B10: PA3155 UDP-2-acetamido-2-dideoxy-d-ribo-hex-3-uluronic acid transaminase, wbpE (protein, UniProt Q9HZ76 1-359)
chain: MIEFIDLKNQQARIKDKIDAGIQRVLRHGQYILGPEVTELEDRLADFVGAKYCISCANGTDALQIVQMALGVGPGDEVITPGFTYVATAETVALLGAKPVYVDIDPRTYNLDPQLLEAAITPRTKAIIPVSLYGQCADFDAINAIASKYGIPVIEDAAQSFGASYKGKRSCNLSTVACTSFFPSKPLGCYGDGGAIFTNDDELATAIRQIARHGQDRRYHHIRVGVNSRLDTLQAAILLPKLEIFEEEIALRQKVAAEYDLSLKQVGIGTPFIEVNNISVYAQYTVRMDNRESVQASLKAAGVPTAVHYPIPLNKQPAVADEKAKLPVGDKAATQVMSLPMHPYLDTASIKIICAALTN
B11: PA1833 probable oxidoreductase (protein, UniProt Q9I2R2 1-330)
chain: MAVFKALWVTEAPHGVYETQVVERDTGDLPAGDVLIRVQYSSLNYKDALSASGNRGVTRKYPHTPGIDAAGVVAESSVAEFAAGDEVIVTGYDLGMNTAGGFGQYIRVPAAWVIKRPQGLSLREAMILGTAGLTAALCVEKLERSGLRPDHGSVLVTGASGGVGSIAVELLAKLGYTVAAATGKLEQAEFLNRLGAKQILDRATVADGVDKPLLKEQWAGAVDTVGGDILFNVVKSLQYGGSVACCGLTAGAGFKASVLPFILRGVNLLGVDSVELPLVVKASMWDKLSLQWKLDNLEEVAREIALEELPGAINQILAGKLVGRVLVNLG
B12: PA2189 hypothetical protein (protein, UniProt Q9I1S6 1-184)
chain: MSKQHIIHFTGPINSSTCGNLINTCAKVLQQEAEELRINIATMGGECSYGFTLYNFLRALPVPIHTHNLGTVESMGNILFLAGERRSASAHSKFLFHPFHWTLHGAVDHARMAEYAMSLDYDLELYARIVAENTRDAPERLDIPRYLMAYPRILGPEDALACGLIHTVDDSPIPAAACQWSIHS
B13: PA2173 hypothetical protein (protein, UniProt Q9I1U2 1-116)
chain: MNEYLPTSTANGLPHNLQRGERLASIGAGLVLAGFGLARGGLPGACKAVAGGLLVSRGLSGHCHVKGLLNEPREELQLLREEVQHLTRRLQRLQERQRDDSRQDAALDAELPPNLP
B14: PA4518 hypothetical protein (protein, UniProt Q9HVQ4 1-141)
chain: MTGNGVSLVTLGVADLARSSLYYQALGWQPSSDGNEQVVFLKGRNLVLGLYGRSALAEDAQVEDRPTGFAAITLACNCASRDEVDRLFSAATAAGGQATKMPQEVFWGGYSGYVADPDGHLWEIAYNPFWPFDEQGNLVLP
B15: PA3712 hypothetical protein (protein, UniProt Q9HXS9 1-231)
chain: MNTRGLLDQLLKSGQEMLQNKSGGKPGASGGGQLGSLLSGAGGGALAAGAIGLLLGNKKARKFGGKAITYGGLAALGVIAYKAYNNWQQQQNGAAPQAQPQTVDRLPEAQAEVHSHAILQAIVGAAKADGHIDERERQMIEGEVAKLTSDREVQGWLERELNKPLDPAEIARAASTPEIAAEMYLASLLMVDEESFMERSYLEELARQLRLEPSFKLELENQARQALQRLA
B16: PA0945 phosphoribosylaminoimidazole synthetase (protein, UniProt Q9I513 1-353)
chain: MSSKQPSLSYKDAGVDIDAGEALVERIKGVAKRTARPEVMGGLGGFGALCEIPAGYKQPVLVSGTDGVGTKLRLALNLNKHDSIGQDLVAMCVNDLVVCGAEPLFFLDYYATGKLNVDVAATVVTGIGAGCELAGCSLVGGETAEMPGMYEGEDYDLAGFCVGVVEKAEIIDGSRVQAGDALIALPSSGPHSNGYSLIRKIIEVSGADIAQVQLDGKPLADLLMAPTRIYVKPLLQLIKQTGAVKAMAHITGGGLLDNIPRVLPDNAQAVIDVASWNRPAVFDWLQEQGNVDETEMHRVLNCGVGMVICVAQSDAEKALEVLRAAGEQPWQIGRIETCGADAERVVLNNLKNH
B17: PA5049 50S ribosomal protein L31 (protein, UniProt Q9HUD0 1-71)
chain: MKADIHPTYEAIEATCSCGNVIKTRSTLCKPIHLDVCSECHPFYTGKQKVLDTGGRIDRFKQRFGVFGATK
B18: PA4671 probable ribosomal protein L25 (protein, UniProt Q9HVC4 1-204)
chain: MVDFILNAQVRSDLGKGASRRLRRNAGLVPAVVYGGDKEPQSVTLELREIAKLLENEAAFSHVIALNVGGAKETVLIKALQRHPAKGFVMHADFLRVVADHKLTAHVPLHFINEEVAVGVKQAGGEISHTISEVEVSCLPKDLPEFIEVDMAKVELGQIVHLSDLKAPKGVELVQLAHGNDLAVANIHASRVVKEEGSEEGAAE

Legend:
[1] = molecular target: 6xHis-PcrP overexpressed in P. aeruginosa ΔpcrP (P. aeruginosa PAO1) (UniProt Q9I040); assay: affinity purification with mass spectrometry; 6xHis-PcrP overexpressed in ΔpcrP grown in BMM8 at 0 or 5 mM Ca2+; lysate (1 mg/ml) on HisPur Ni-NTA resin, 2 h at 4°C, washed with 10 mM Tris-HCl pH 7.5; LC-MS/MS; ΔpcrP as negative control
[2] = molecular target: 3xFlag-PcrP overexpressed in P. aeruginosa ΔpcrP (P. aeruginosa PAO1) (UniProt Q9I040); assay: affinity purification with mass spectrometry; 3xFlag-PcrP overexpressed in ΔpcrP grown in BMM8 (high Pi, 580 μM) or BMMH8 (low Pi, 50 μM) at 0 or 5 mM Ca2+; lysate (1 mg/ml) on ANTI-FLAG M2 magnetic beads, 2 h at 4°C, washed with 10 mM Tris-HCl pH 7.5; LC-MS/MS; ΔpcrP as negative control

Binder	binding [1]	binding [2]
B1	binds	binds
B2	binds	binds
B3	binds	binds
B4	binds	binds
B5	binds	binds
B6	binds	binds
B7	binds	binds
B8	binds	binds
B9	binds	binds
B10	–	binds
B11	–	binds
B12	–	binds
B13	–	binds
B14	–	binds
B15	–	binds
B16	–	binds
B17	–	binds
B18	–	binds
